According to PMC8748900:
These are yes or no findings as the source states them, for the method shown. Some binding calls cover weakened binding; strength is not graded here. Where a sequence is shown, tags or fusion partners need not be part of it.

Molecular target: T1, BASL, full-length, fused with Gal4 DNA-binding domain (Arabidopsis thaliana) (UniProt Q5BPF3)
T1 sequence: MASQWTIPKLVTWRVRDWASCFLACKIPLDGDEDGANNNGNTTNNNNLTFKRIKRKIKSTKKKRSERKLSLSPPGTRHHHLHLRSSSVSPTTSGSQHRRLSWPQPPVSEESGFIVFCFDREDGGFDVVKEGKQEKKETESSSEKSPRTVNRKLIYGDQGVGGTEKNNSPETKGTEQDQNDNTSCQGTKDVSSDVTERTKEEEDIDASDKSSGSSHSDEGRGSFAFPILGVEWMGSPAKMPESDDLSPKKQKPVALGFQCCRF
Test: two-hybrid; pairwise; bait in pGBKT7 (BD), prey in pGADT7 (AD), strain AH109; tested on SD/-Leu/-Trp/-His, 3 days at 30 °C; 3-AT where needed

binding: binds
B1: PRAF4_BRX (BRX domain of PRAF4/RLD1), fused with Gal4 activation domain (domain or fragment, UniProt Q947D2 1023-1078)
chain: AEWIEQYEPGVYITLVALHDGTRDLRRVRFSRRRFGEHQAETWWSENREKVYEKYN
